Calls as published in the ROBIN set (doi:10.1002/anie.202211358).

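Compounds were printed on reactive glass slides in duplicate spots, a dye-labelled oligonucleotide was laid over them, and the fluorescence left after washing was read. For the PreQ1, TPP and SAM-II riboswitches the laboratory earlier reported (doi:10.1038/s41467-019-09493-3) 1 µM RNA, 2 h, and a rule that included a mean Z-score above 3 (spot signal-to-noise against the whole library), a score well above that on a control array, and duplicate spots agreeing (coefficient of variation under 100). The data file gives only the calls; its cut-offs may differ, and compounds hitting several targets are kept. The calls come from the array alone, and fixing a compound to the slide can hide its binding.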 A compound is marked yes if it was called a hit and no if it was screened but was not. This is an unselected part of the compounds tested. A target missing from an entry has no call listed here. A dash means that no call is listed here.

Targets (5′ to 3′):
T1: PreQ1 riboswitch RNA pseudoknot, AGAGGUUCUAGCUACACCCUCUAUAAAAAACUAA. From B. subtilis. About 24,000 compounds screened, about 170 hits.
T2: TPP riboswitch RNA three-way junction, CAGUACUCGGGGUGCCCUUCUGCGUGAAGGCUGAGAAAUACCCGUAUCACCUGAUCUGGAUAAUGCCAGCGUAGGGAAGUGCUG. About 24,000 compounds screened, about 160 hits.
T3: SAM-II riboswitch RNA pseudoknot, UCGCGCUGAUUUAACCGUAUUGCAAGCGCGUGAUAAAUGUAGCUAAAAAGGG. About 21,000 compounds screened, about 200 hits.

{"compound": "COc1ccc(-c2c(C)nn3c(N)c(-c4ccc(Cl)cc4)cnc23)cc1OC", "T1": "no", "T2": "no", "T3": "no"}
{"compound": "Nc1c(C(=O)CCC(=O)O)oc2ccc(Br)cc12", "T1": "no", "T2": "no", "T3": "no"}
{"compound": "COc1ccc(-c2cc(NCc3ccc(F)cc3)n3cnnc3n2)cc1", "T1": "no", "T2": "no"}
{"compound": "Cc1nc(N2CCC(NCC(O)c3ccc(O)cc3)CC2)c2ccsc2n1", "stereo": "centres unmarked", "T1": "no", "T2": "no", "T3": "no"}
{"compound": "CC(C)NC(=O)[C@@H]1C[C@@H](N)CN1Cc1cc(C(C)C)no1", "T1": "no", "T2": "no", "T3": "no"}
{"compound": "Cc1cc(Nc2ccc(Br)cc2)n2nc(-c3ccccc3)nc2n1", "T1": "no", "T2": "no"}
{"compound": "OCCn1c(-c2ccc(Cl)cc2)cn2c3ccccc3nc12", "T1": "no", "T2": "no", "T3": "no"}
{"compound": "COc1ccc(/C(C#N)=C/c2ccccn2)cc1", "T1": "no", "T2": "no", "T3": "no"}
{"compound": "CN1CCC(NCCC2(c3cccc(C(F)(F)F)c3)CCOC(C)(C)C2)CC1", "stereo": "centres unmarked", "T1": "no", "T2": "yes"}
{"compound": "Cc1ccc([C@H]2C[C@@H](c3ccccc3Cl)Nc3nc(N)nn32)cc1", "T1": "no", "T2": "no", "T3": "no"}
{"compound": "O=C(c1cncc(N2CC[C@H](N3CCOCC3)[C@H](CCCO)C2)n1)N1CCCC1", "T1": "no", "T2": "no", "T3": "no"}
{"compound": "Cc1n[nH]c(C)c1CCN(C)C(=O)c1cn(CCN)nn1", "T1": "no", "T2": "no", "T3": "no"}
{"compound": "N#CC1=C(N)Oc2[nH]nc(-c3ccccc3)c2C1c1ccccc1", "stereo": "centres unmarked", "T1": "no", "T2": "no", "T3": "no"}
{"compound": "Nc1nccc(C2CCN(Cc3cc(O)c4cc(Cl)ccc4n3)CC2)n1", "T1": "no", "T2": "no", "T3": "no"}
{"compound": "CC(NC1CCN(c2ncnc3[nH]cnc23)CC1)c1ccc2[nH]ccc2c1", "stereo": "centres unmarked", "T1": "no", "T2": "no", "T3": "yes"}
{"compound": "Nc1nc(N)c2nc(-c3cccc(O)c3)c(-c3cccc(O)c3)nc2n1", "T1": "no", "T2": "no", "T3": "no"}
{"compound": "CCOc1ccccc1Nc1c(-c2ccc(C(C)C)cc2)c(=O)c1=O", "T1": "no", "T2": "no"}
{"compound": "CCOc1ccc(-c2cnc(NCc3ccccc3)n2C)cc1", "T1": "no", "T2": "no", "T3": "no"}
{"compound": "C=CCNc1oc(-c2ccc(Cl)cc2)nc1S(=O)(=O)c1ccccc1", "T1": "no", "T2": "no"}
{"compound": "Cc1cc(C)c2c(CC(=O)N3CCOCC(CO)C3)coc2c1C", "stereo": "centres unmarked", "T1": "no", "T2": "no", "T3": "no"}
{"compound": "CC1(C)CC(=O)c2c(nc3sc(C(=O)N4CCCCCC4)c(N)c3c2-c2ccccc2)C1", "T1": "no", "T2": "no", "T3": "no"}
{"compound": "O=C(O)c1cccc(-c2ccc(CNCc3cccnc3)o2)c1", "T1": "no", "T2": "no", "T3": "no"}
{"compound": "CCOC(=O)C1CCC2=C1c1c(ccc3ccccc13)NC2c1ccc(Br)cc1", "stereo": "centres unmarked", "T1": "no", "T2": "no", "T3": "no"}
{"compound": "O=C(NOCC1CC1)c1ccc(F)c(F)c1Nc1ccc(I)cc1Cl", "T1": "no", "T2": "no", "T3": "no"}
{"compound": "CCOc1ccc(Cn2c(-c3nonc3N)nc3ccccc32)cc1OCC", "T1": "no", "T2": "no", "T3": "no"}
{"compound": "C=C(C)Cn1c(NCCO)nc2c1c(=O)[nH]c(=O)n2C", "T1": "no", "T2": "no", "T3": "no"}
{"compound": "COc1cc(OC)c(OC)cc1CNCCC(C)C", "T1": "no", "T2": "no", "T3": "no"}
{"compound": "CC(=O)c1sc2nc3c(cc2c1N)N1CCC3CC1", "T1": "no", "T2": "no", "T3": "no"}
{"compound": "Cc1c(NC(=O)N2CCOCC(CO)C2)cccc1C(=O)N1CCCC1", "stereo": "centres unmarked", "T1": "no", "T2": "no", "T3": "no"}
{"compound": "COc1cccc(CN2CCCC(O)(CNCCS(C)(=O)=O)C2=O)c1", "stereo": "centres unmarked", "T1": "no", "T2": "no", "T3": "no"}
{"compound": "CCCOc1ccc(Cc2c(Cl)nc(SC)nc2NC)cc1", "T1": "no", "T2": "no", "T3": "no"}
{"compound": "CC(=O)N1CCN(c2cc(Nc3ccc(C)cc3)nc(C)n2)CC1", "T1": "no", "T2": "no"}

Repeated from the top, 3 entries:

| compound | T1 | T2 | T3 |
|---|---|---|---|
| `COc1ccc(-c2c(C)nn3c(N)c(-c4ccc(Cl)cc4)cnc23)cc1OC` | no | no | no |
| `Nc1c(C(=O)CCC(=O)O)oc2ccc(Br)cc12` | no | no | no |
| `COc1ccc(-c2cc(NCc3ccc(F)cc3)n3cnnc3n2)cc1` | no | no | - |